{
  "source": "patent US9980925B2",
  "about": "“Xanthohumol in antiarrythmic applications” (University of South Carolina, priority 2016, dated 2018)",
  "tested_on": "rat ventricular cell",
  "test": "Uptake and mitochondrial co-localization of xanthohumol fluorescence with MitoTracker-Red",
  "format": "cell-based",
  "settings": "300 nM xanthohumol",
  "experimental": "The weak fluorescence of xanthohumol (50-1000 μM) allowed its uptake and subcellular mitochondrial distribution (λex=405 nm) and co-localization with MitoTracker-Red (λex=568 nm) to be monitored at 0.2 Hz in dual channel recordings with a LEICA microscope (TIRF DMI6000 B, 63x oil-immersion objective; Leica Microsystems, Buffalo Grove, Ill.) equipped with an Andor iXon3 camera (512×512 pixels of 0.254×0.254 μm^2, Belfast, UK) and operating in the epifluorescence mode (FIG. 2).\nAfter 6 minutes, the cellular fluorescence intensity produced by 300 and 100 nM xanthohumol was 130±14 (n=4) and 32±12 (n=2), respectively. In comparison, the cellular autofluorescence was 350±65 so that lower concentrations of xanthohumol were not reliably detected.",
  "data": [
    {"molecule": "COc1cc(O)c(CC=C(C)C)c(O)c1C(=O)/C=C/c1ccc(O)cc1", "note": "[xanthohumol]", "values": [
      {"measurement": "co-localization with mitochondrial marker MitoTracker-Red", "result": "high degree of co-localization"}
    ]}
  ]
}
